According to PubChem BioAssay AID1347075 (National Center for Advancing Translational Sciences (NCATS), 2019):
Screen size: about 400,000 compounds; about 5,500 (1.4%) were called active. The shares of active, inactive and inconclusive entries below differ from those in the screen. Calls follow the shape of the dose curve; as a rule, active = well fitted cell-killing curve with a large enough effect; inconclusive = small, poorly fitted or top-dose-only effect, or effect the other way; inactive = flat fitted curve, though single readings scatter. A potency beside an inconclusive call is a rough fit, not a confirmed value.

experiment: qHTS assay for MDR1-selective chemotherapeutics: Primary screen using the parental adenocarcinoma cell KB-3-1; conditions: KB-3-1 viability, CellTiter-Glo ATP luminescence, 72 h; activity change, negative = cytotoxic: at 46.1 µM (top of the series); also: nearly all actives have a fitted effect of over 60% in size
Method in brief: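 Viability of parental KB-3-1 cells, measured by CellTiter-Glo luminescence, followed a 72 h incubation at 37 °C with pinned compounds in phenol-red-free DMEM containing 10% FBS.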
% is scaled to controls: 0 for no effect and ±100 for the full control effect; potency is read from the fitted curve at half-maximal effect.

Row | Structure (SMILES) | Potency | activity change, negative = cytotoxic
1 | CCn1cc(C(=O)NC2CCCCCC2)c2cc(OC)c(OC)cc2c1=O | inactive | 
2 | COCCn1c(=NC(=O)c2cc(-c3cccs3)nc3ccccc23)sc2cc(S(N)(=O)=O)ccc21 | inconclusive: 16.4 µM [cytotoxic, single point] | 
3 | Cc1cccnc1NC(=O)CCNC(=O)c1ccc(Br)cc1 | inconclusive: 18.4 µM [rising, partial curve, poor fit] | 
4 | COc1ccc(-c2n[nH]c(C)c2-c2ccc(Cl)cc2)c(O)c1OC | inconclusive: 29.1 µM [cytotoxic, single point] | 
5 | Cc1cc(Cl)cc(Cl)c1OCCCCN(C)C | inactive | 
6 | C=CCNc1oc(-c2cccs2)nc1C#N | inconclusive: 29.1 µM [cytotoxic, single point] | 
7 | Cn1nc(C(F)(F)F)c(-c2ccccc2)c1NC(=O)c1cccnc1 | inconclusive: 0.517 µM [rising, full curve] | 
8 | CC(C)NC(=O)CSc1nc(Cc2ccccc2)nc2ccccc12 | inactive | 
9 | CC(=O)n1cc(N(C(=O)CCl)c2ccc([N+](=O)[O-])cc2)c2ccccc21 | inconclusive: 20.6 µM [cytotoxic, single point] | 
10 | Cn1c(SCC(=O)N/N=C/c2ccc([N+](=O)[O-])s2)nnc1-c1ccccc1 | active: 20.6 µM | 
11 | O=S(CC(O)(c1ccccc1)c1ccccc1)CC(O)(c1ccccc1)c1ccccc1 | inconclusive: 29.1 µM [cytotoxic, single point] | 
12 | Cc1ccc(Cc2c(C)nc3nc(SCC(=O)NCc4ccco4)nn3c2C)cc1 | active: 4.61 µM | 
13 | COCCN(C(=O)COC(=O)c1ccccc1Nc1ccccc1)c1c(N)n(Cc2ccccc2)c(=O)[nH]c1=O | inconclusive: 29.1 µM [cytotoxic, single point] | 
14 | CCN(Cc1ccccc1)S(=O)(=O)c1ccc(S(=O)(=O)N(Cc2cccc(OC)c2)CC2CCCO2)cc1 (stereo not given) | inconclusive: 4.61 µM [cytotoxic, partial curve] | 
15 | COc1cccc(-c2nc(CS(=O)(=O)CC(=O)Nc3cc(F)ccc3F)c(C)o2)c1 | inconclusive: 20.6 µM [cytotoxic, partial curve, poor fit] | 
16 | CC(=O)Nc1ccc(-c2ccnc3c2CC(C(=O)NCc2ccco2)O3)cc1 (stereo not given) | active: 0.517 µM | 
17 | CN(C1CCCCC1)S(=O)(=O)c1ccc(NC(=O)C2CCCCC2)cc1 | inactive | 
18 | CCOc1cc(C(C#N)N2CCCCC2)ccc1OC (stereo not given) |  | inconclusive: -0.499%
19 | COCCOC(=O)c1c(C)nc(SCC(=O)Nc2ccc(C)cc2)c(C#N)c1-c1ccco1 | inactive | 
20 | Cc1ccc2c(c1)c1c(n2CC(O)Cn2nc(C)c(Br)c2C)CCCC1 (stereo not given) | inconclusive: 29.1 µM [cytotoxic, single point] | 
21 | Cc1cccn2c(=O)nc(SCC(=O)N3CC(C)OC(C)C3)nc12 (stereo not given) | inconclusive: 32.6 µM [rising, partial curve, poor fit] | 
22 | CCC1C/C(=C\c2cc(OC)c(OC)cc2OC)C(=O)/C(=C/c2cc(OC)c(OC)cc2OC)C1 (stereo not given) | inconclusive: 18.4 µM [cytotoxic, single point] | 

In the list so far, three have a furan ring, fused or not.
Row | Structure (SMILES) | Potency | activity change, negative = cytotoxic
12 | Cc1ccc(Cc2c(C)nc3nc(SCC(=O)NCc4ccco4)nn3c2C)cc1 | active: 4.61 µM | 
16 | CC(=O)Nc1ccc(-c2ccnc3c2CC(C(=O)NCc2ccco2)O3)cc1 (stereo not given) | active: 0.517 µM | 
19 | COCCOC(=O)c1c(C)nc(SCC(=O)Nc2ccc(C)cc2)c(C#N)c1-c1ccco1 | inactive | 

(more compounds)

Row | Structure (SMILES) | Potency | activity change, negative = cytotoxic
23 | Cc1ccc(S(=O)(=O)N2CCN(C(=O)c3ccc(-n4cncn4)c([N+](=O)[O-])c3)CC2)c(C)c1 | inactive | 
24 | COc1ccc(CN(C(=O)CSc2nnc(-c3c[nH]c4ccccc34)o2)c2ccc(F)cc2)cc1OC | inconclusive: 18.4 µM [cytotoxic, single point] | 
25 | C=CCN(Cc1nc(-c2ccc(OC)cc2)no1)C(=O)c1ccc2c(c1)OCO2 | inactive | 
26 | CN(C)c1ccc(N/C(=N\S(=O)(=O)c2cccs2)c2ccccc2)cc1 | inactive | 
27 | COc1cc(CNC2CCCC2)cc(Cl)c1OCc1ccccc1Cl | inconclusive: 29.1 µM [cytotoxic, single point] | 
28 | CCN1c2ccccc2N(C)C1(C)c1ccccc1 (stereo not given) | inconclusive: 29.1 µM [cytotoxic, single point] | 
29 | Cc1ccc(C(=O)c2c3ccc([N+](=O)[O-])cc3[n+]([O-])n2CCCN)cc1 | inconclusive: 29.1 µM [cytotoxic, single point] | 
30 | CCOc1ccc(NC(=O)Cc2ccc(NC(=O)N3CCCCc4ccccc43)cc2)cc1 | inactive | 
31 | COc1ccc(C(=O)CCN2CCCCCC2)cc1 | inconclusive: 35.5 µM [cytotoxic, single point] | 
32 | Cc1c(C(=O)NNc2cc(=O)n(C)c(=O)n2C)cccc1[N+](=O)[O-] | inconclusive: 23.1 µM [cytotoxic, single point] | 
33 | Cc1nc2ccccc2c(=O)n1/N=C/c1ccc2ccccc2c1O | inconclusive: 29.1 µM [cytotoxic, single point] | 
34 | CCOc1ccccc1CNC(=O)CN(c1ccc(C)cc1)S(=O)(=O)N(C)C |  | inconclusive: -10.7%
35 | CCNC1CCC(Nc2ccnc3cc(Cl)ccc23)CC1 (stereo not given) | inconclusive: 18.4 µM [cytotoxic, partial curve] | 
36 | CC[C@@H]1CCC[C@@H](O)[C@@H](C)C(=O)O[C@H](C)[C@@H](C)C/C=C(C)/C(OC)=C\C(=O)N(C)C([C@@H](C)CC)C(=O)N(C)[C@@H](C(C)C)C(=O)N(C)[C@@H](COC)C(=O)N2CCC[C@H]2C(=O)N(C)[C@@H](C(C)C)C(=O)N2CCC[C@H]2C(=O)O1 (stereo not given in full) | inconclusive: 0.0461 µM [cytotoxic, full curve, poor fit] | 
37 | CN1CCN(c2oc(-c3ccc(OCc4ccc(Cl)cc4)cc3)nc2C#N)CC1 | inactive | 
38 | O=C(Nc1ccc(Br)cc1)c1ccc(Br)c(S(=O)(=O)N2CCCCC2)c1 | inconclusive: 3.26 µM [cytotoxic, partial curve, poor fit] | 
39 | O=c1cc(N2CCCCC2)c(-c2ccccc2)nn1Cc1ccc(F)cc1 | inconclusive: 32.6 µM [cytotoxic, single point] | 
40 | Cc1ccc(OCCN2CCN(C(=O)CCC(=O)Nc3nnc(CC(C)C)s3)CC2)cc1 | inconclusive: 29.1 µM [cytotoxic, single point] | 
41 | CCOc1cc(C2C(C#N)=C(N)OC(C)=C2C(C)=O)c(Br)c(Br)c1OC(C)C (stereo not given) | inconclusive: 29.1 µM [cytotoxic, single point] | 
42 | Cc1ccc([N+](=O)[O-])cc1S(=O)(=O)Nc1ccc(C(=O)NCC2CCCO2)cc1 (stereo not given) | inactive | 
43 | COc1ccc(NC(=O)c2cc(C3CCCCN3S(=O)(=O)c3cccs3)on2)c(C)c1 (stereo not given) | inconclusive: 16.4 µM [cytotoxic, single point] | 
44 | COc1cc(/C=C(\C#N)c2nc3ccc(C)cc3[nH]2)ccc1OC(C)C | inactive | 

Row | Structure (SMILES) | Potency | activity change, negative = cytotoxic
45 | CC(=O)c1ccc(-c2cnc3c(NC=O)cc(-c4cnn(C)c4)cn23)cc1 | inconclusive: 16.4 µM [cytotoxic, partial curve, poor fit] | 
46 | CCc1ccccc1N(C)S(=O)(=O)c1ccc2[nH]cc(C(=O)NCCOC)c(=O)c2c1 | inactive | 
47 | CC(=O)c1ccc2c(c1)C1C=CCC1C(c1ccncc1)N2 (stereo not given) | inconclusive: 18.4 µM [cytotoxic, single point] | 
48 | O=C(NCc1ccc(C(F)(F)F)cc1)C1CC(c2ccc(C(F)(F)F)cc2)=NO1 (stereo not given) | inconclusive: 29.1 µM [cytotoxic, single point] | 
49 | COC(=O)CSC1=C(C#N)C(c2cccc(F)c2)CC(=O)N1 (stereo not given) | active: 16.4 µM | 
50 | Cc1cc(C)c(C)c(S(=O)(=O)N2CCN(C(=O)C3CCC3)CC2)c1C | inconclusive: 29.1 µM [cytotoxic, single point] | 
51 | CCOC(=O)c1cnc(-c2ccccc2)nc1Oc1ccc(OC)cc1 | inactive | 
52 | Nc1nc(C(F)(F)F)cc(=O)n1N | inconclusive: 7.31 µM [rising, full curve, poor fit] | 
53 | CC(C)(C)C(=O)N1N=C(c2cccc(NS(C)(=O)=O)c2)CC1c1cccs1 (stereo not given) | inconclusive: 29.1 µM [cytotoxic, single point] | 
54 | C=CCNC(=O)/C(C#N)=C/c1c(N2CCN(c3cccc(Cl)c3)CC2)nc2c(C)cccn2c1=O | inactive | 
55 | CCCCCCn1c(SCC(C)C)nc2c1c(=O)[nH]c(=O)n2C | inconclusive: 16.4 µM [cytotoxic, single point] | 
56 | O=C(NC(=S)Nc1ccccc1O)c1ccc(-c2ccc(Cl)cc2)o1 | inconclusive: 29.1 µM [cytotoxic, single point] | 
57 | O=C(/C=C/Nc1ccc(F)c(Cl)c1)c1ccccc1 | inactive | 
58 | Cc1ccc(S(=O)(=O)N2CCCCC2CCNC(=O)C(=O)NCc2ccco2)cc1 (stereo not given) | inconclusive: 18.4 µM [cytotoxic, single point] | 
59 | C=CCn1c(SCC(=O)OCC)nc2cc(C(=O)NCc3ccco3)ccc2c1=O | inactive | 
60 | COc1ccc(N2CCN(C(=O)COC(=O)c3oc4ccccc4c3C)CC2)cc1 | inconclusive: 0.0461 µM [rising, full curve] | 
61 | CCc1n[nH]c(=S)n1/N=C/c1c(C)nn(-c2ccccc2)c1Cl | inconclusive: 2.31 µM [cytotoxic, full curve] | 
62 | CCOC(=O)c1cnc2c(OC)cccc2c1NCc1cccnc1 |  | inconclusive: -41.3% [cytotoxic]
63 | Cc1ccc(N2C(=O)c3ccccc3NC2C(C)Cc2ccc3c(c2)OCO3)cc1 (stereo not given) | inconclusive: 15.8 µM [cytotoxic, single point] | 
64 | O=C1NC[C@H](c2ccccc2)OC(=O)[C@@H](Cc2ccc(F)cc2)CC/C=C/C[C@H]1CC(=O)N(CCO)Cc1ccccc1 | inconclusive: 29.1 µM [cytotoxic, single point] | 
65 | Cc1ccc(Nc2nc(CSc3nnc(-c4ccccc4C)n3C)cs2)cc1 | inconclusive: 29.1 µM [cytotoxic, single point] | 

Quoted at random: 2 compounds from above.
Row | Structure (SMILES) | Potency | activity change, negative = cytotoxic
58 | Cc1ccc(S(=O)(=O)N2CCCCC2CCNC(=O)C(=O)NCc2ccco2)cc1 (stereo not given) | inconclusive: 18.4 µM [cytotoxic, single point] | 
60 | COc1ccc(N2CCN(C(=O)COC(=O)c3oc4ccccc4c3C)CC2)cc1 | inconclusive: 0.0461 µM [rising, full curve] | 
